Results on 1 molecule are retold here after article doi:10.1101/2023.10.04.560926.

Assay [1] addresses IFNAR2-V5-TurboID (HEK293T) (human). Kind of assay: co-IP.
Assay [2] has as its target IFNAR1-V5-TurboID (HEK293T) (human). Kind of assay: co-IP.

Results are given in words; binding and its absence hold for the method and conditions named. In cells and extracts the contact can be indirect. Where a sequence is shown, tags or fusion partners need not be part of it.

B1: Flag-PJA2 (enzyme, UniProt O43164-1 1-708)
chain: MSQYTEKEPAAMDQESGKAVWPKPAGGYQTITGRRYGRRHAYVSFKPCMTRHERSLGRAGDDYEVLELDDVPKENSSGSSPLDQVDSSLPSEPIFEKSETEIPTCGSALNQTTESSQSFVAVHHSEEGRDTLGSSTNLHNHSEGEYIPGACSASSVQNGIALVHTDSYDPDGKHGEDNDHLQLSAEVVEGSRYQESLGNTVFELENREAEAYTGLSPPVPSFNCEVRDEFEELDSVPLVKSSAGDTEFVHQNSQEIQRSSQDEMVSTKQQNNTSQERQTEHSPEDAACGPGHICSEQNTNDREKNHGSSPEQVVRPKVRKLISSSQVDQETGFNRHEAKQRSVQRWREALEVEESGSDDLLIKCEEYDGEHDCMFLDPPYSRVITQRETENNQMTSESGATAGRQEVDNTFWNGCGDYYQLYDKDEDSSECSDGEWSASLPHRFSGTEKDQSSSDESWETLPGKDENEPELQSDSSGPEEENQELSLQEGEQTSLEEGEIPWLQYNEVNESSSDEGNEPANEFAQPAFMLDGNNNLEDDSSVSEDLDVDWSLFDGFADGLGVAEAISYVDPQFLTYMALEERLAQAMETALAHLESLAVDVEVANPPASKESIDGLPETLVLEDHTAIGQEQCCPICCSEYIKDDIATELPCHHFFHKPCVSIWLQKSGTCPVCRRHFPPAVIEASAAPSSEPDPDAPPSNDSIAEAP
As to B1, the binding result in assay [1] and in assay [2] was “no binding” throughout.
